# Results from PubChem BioAssay AID1439 (NMMLSC, 2008).
# The chains behind the UniProt entries cited, without tags or fusion partners.
# UniProt P09471, whole entry, looked up: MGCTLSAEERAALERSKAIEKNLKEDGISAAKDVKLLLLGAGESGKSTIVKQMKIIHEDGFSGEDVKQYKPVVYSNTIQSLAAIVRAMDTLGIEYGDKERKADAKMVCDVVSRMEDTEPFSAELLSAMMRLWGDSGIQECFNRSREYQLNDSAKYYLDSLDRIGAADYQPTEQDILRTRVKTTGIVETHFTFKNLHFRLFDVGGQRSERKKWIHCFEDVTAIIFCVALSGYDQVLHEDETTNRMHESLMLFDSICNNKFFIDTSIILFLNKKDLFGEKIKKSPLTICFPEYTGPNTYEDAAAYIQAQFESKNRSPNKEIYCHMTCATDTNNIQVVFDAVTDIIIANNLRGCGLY
# Among all 220,000 compounds or so, about 770 (0.35%) were called active. Inconclusive means that the source gave no clear call. Such entries were picked first, then a sample of the others. Cut-off read from the data, not from the text of the source: active = binding response below about 49% or above about 150%; inconclusive = no clear call, values can overlap the other calls; inactive = in between.
# Biological target: Guanine nucleotide-binding protein G(o) subunit alpha (Homo sapiens) (UniProt P09471)
# Experiment: RGS7-Galphao binding modulators, primary screen, biochemical, multiplexed bead flow cytometry (AID 1439);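 note: fluorescent Galphao held in activated GDP-AlF4 state binding bead-coupled RGS7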
# Conditions: at 10 µM, actives lie on both sides
row,Compound,binding response (% of control)
1,OCCNCCSc1nc(C2CCCCC2)n(-c2ccccc2Cl)n1,inconclusive: 125%
2,Cc1ccc(N/C(N)=N/c2nc(CSc3nnc(N)s3)cc(=O)[nH]2)cc1,inconclusive: 123%
3,COCCn1c(Cc2cccn2C)nnc1SCC(=O)NCc1ccc2c(c1)OCO2,inactive: 104%
4,CCOc1ccc(CN2CCN(c3cc(C)nc4c5c(C)cc(C)nc5nn34)CC2)cc1,inactive: 100%
5,Cn1cccc1C1C(C#N)=C(N)OC2=C1C(=O)CCC2 (centres undefined),inconclusive: 70.3%
6,CC1(C)C2CCC1(C)C(OC(=O)C[n+]1ccccc1N)C2 (centres undefined),inconclusive: 94%
7,CCOc1ccc(C(=O)NCC(=O)OCC(=O)N2CCCC2)cc1,inconclusive: 108%
8,O=C(CSC1=NCCS1)c1ccc(Cl)cc1,inconclusive: 87.5%
9,Cc1c(C(=O)c2ccccc2)oc2ccc3ccccc3c12,inconclusive: 37.5%
10,CC(C)(C)OC(=O)NCCC(=O)N/N=C/c1cccc2nccnc12,inconclusive: 119%
11,CC(C)(CN1CCc2ccccc2C1)NS(=O)(=O)c1ccccc1,inconclusive: 90%
12,COc1ccc(OC)c(C2CC(c3ccccc3)=NN2C(=S)Nc2ccccc2)c1 (centres undefined),inconclusive: 52%
13,CN1CCC(=O)N([C@H](CSc2ccc(Br)cc2)Cc2ccccc2)CC1,inconclusive: 97.4%
14,O=C(CSc1nnc(-c2c[nH]c3ccccc23)o1)c1ccccc1,inactive: 95.2%
15,Cc1[nH]c2ccccc2c1/C=N/Nc1ccc([N+](=O)[O-])cc1S(=O)(=O)Nc1ccc(Cl)cc1,inactive: 128%
16,O=C(NCc1cccs1)c1ccc([N+](=O)[O-])cc1Cl,inactive: 104%
17,CCc1c(C)sc2nc3c(C(=O)N4CCOCC4)cc(C(=O)c4cc(F)ccc4O)cn3c(=O)c12,inconclusive: 80.1%
18,COc1cc(O)c(C(CCN2CCCC(C)C2)c2ccc3c(c2)OCO3)c(OC)c1 (centres undefined),inconclusive: 74.5%
19,O=C(CSc1ncnc2c1oc1ccccc12)Nc1nccs1,active: 155% [activator]
20,CC1CN(c2nc(Nc3ccccc3)nc(N)c2[N+](=O)[O-])CC(C)O1 (centres undefined),inconclusive: -27.8%
21,COc1ccccc1CNc1nc(-c2cc(C)n(C)c2C)cs1,inconclusive: 30.9%
22,CN(c1ccccc1)S(=O)(=O)c1cccc(NC(=O)CCN2C(=O)C3CCCCC3C2=O)c1 (centres undefined),inconclusive: 89.8%
23,Cn1c(=O)oc2cc(S(=O)(=O)N3CCc4ccccc43)ccc21,inconclusive: 30.1%

row,Compound,binding response (% of control)
1,COCCCN1C(=O)CS/C1=N\S(=O)(=O)c1ccccc1,inconclusive: 338%
2,Cc1cc(CN(C)C(=O)CC2C(=O)NCCN2Cc2c(F)cccc2Cl)on1 (centres undefined),inconclusive: 114%
3,COc1ccc(NC2=CC(c3ccc(OC)cc3)N(c3ccc(OC)cc3)C2=O)cc1 (centres undefined),inconclusive: 118%
4,Cc1ccc(S(=O)(=O)N2CCCN(C(=O)OC(C)(C)C)CC2)cc1,inconclusive: 127%
5,CN1CCN(c2ccc(C(CC(N)=O)NC(=O)Cc3ccc(Br)cc3)cc2[N+](=O)[O-])CC1 (centres undefined),inconclusive: 95.8%
6,CC(=O)c1ccc(OCCn2cnc3ccccc32)cc1,inactive: 109%
7,COc1ccc(NS(=O)(=O)c2cn(C)c(=O)n(C)c2=O)c(OC)c1,inconclusive: 102%
8,CN(C)c1ccc(/C=C/C(=O)c2c(O)c3ccccc3oc2=O)cc1,inconclusive: 156%
9,O=C(NCCCCCc1nc2ccccc2[nH]1)c1ccccc1Cl,inconclusive: 100%
10,Cc1ccc(OCCCC(=O)NCc2ccco2)c(C)c1,inactive: 93.3%
11,O=C(NCc1cccc(CNC(=O)C(=O)NCc2ccco2)c1)C(=O)NCc1ccco1,inconclusive: 60.9%
12,CCOCCn1c(-c2ccccc2)nc2ccccc21,inconclusive: 96.6%
13,COc1ccc(CCNC(=O)Cn2nc(C(=O)O)c3ccccc3c2=O)cc1OC,inconclusive: 86.1%
14,Cc1ccc(C(=O)N2CCN(c3ccccn3)CC2)cc1,inconclusive: 77.4%
15,COc1ccc2[nH]c(=O)c(CN(Cc3cccs3)C(=S)NCC3CCCO3)cc2c1 (centres undefined),inconclusive: 114%
16,Cn1c(=O)c2[nH]c(SCC(=O)c3ccc(F)cc3)nc2n(C)c1=O,inconclusive: 98%
17,O=C1C=C(NCCN2CCOCC2)CC(c2ccccc2)C1 (centres undefined),inactive: 102%
18,COc1cccc(-n2c(-c3ccc4[nH]c(C)c(C)c4c3)n[nH]c2=S)c1,inconclusive: 103%
19,COc1ccc2[nH]c3c(=O)n(CCCN4CCOCC4)cnc3c2c1,inconclusive: 100%
20,O=C(NCc1cccnc1)c1ccc(NC(=O)c2cccc([N+](=O)[O-])c2)cc1,inactive: 98.7%
21,Cc1cc(C(=O)Nc2ccccc2)oc(=O)c1,inconclusive: 88.8%
22,COc1ccc(Cn2c(O)c(C=Nc3ccccc3C(=O)O)c3ccccc3c2=O)cc1,inconclusive: 77%
23,COc1ccc(CSCC(=O)NN=C2CCN(C)CC2)cc1,inconclusive: 118%

# Retrieved by compound from above, 2 records:
row,Compound,binding response (% of control)
1,COCCCN1C(=O)CS/C1=N\S(=O)(=O)c1ccccc1,inconclusive: 338%
16,Cn1c(=O)c2[nH]c(SCC(=O)c3ccc(F)cc3)nc2n(C)c1=O,inconclusive: 98%

# More entries

row,Compound,binding response (% of control)
1,CC(C)OCCCn1c(=NC(=O)c2cccs2)c(C#N)cc2c(=O)n3ccccc3nc21,inconclusive: 54%
2,CN(C)CCC(O)(c1ccccc1)c1ccccc1,inactive: 107%
3,CN(C)CCN1CC(O)=C(c2nc3ccccc3s2)C1=N,inconclusive: 51.9%
4,Cc1cc(C)n(-c2ccc(S(=O)(=O)N3CCOCC3)cc2[N+](=O)[O-])n1,inconclusive: 119%
5,Cc1ccc(S(=O)(=O)Nc2ccc(N3CCOCC3)cc2)cc1[N+](=O)[O-],inconclusive: 101%
6,Nc1cccc2c1C(=O)N(C(=O)/C=C/c1cccc(Br)c1)C2=O,inconclusive: 281%
7,O=C(CN1C(=O)CSc2ccc(S(=O)(=O)N3CCOCC3)cc21)NCCCN1CCc2ccccc2C1,inconclusive: 97.6%
8,Cc1ccc(COc2ccccc2-c2cc(C(=O)N/N=C/c3cccnc3)[nH]n2)cc1,inconclusive: 87.6%
9,CNC(=O)c1[nH]cnc1C(=O)N[C@@H](C)C(=O)OCc1ccccc1,inconclusive: 92.5%
10,Cc1cc(OCC(=O)Nc2ccc(F)c(F)c2)nc(C(C)C)n1,active: 2.27%
11,C/C=C/C(=O)N1c2ccc(C)cc2C(C)=CC1(C)C,inconclusive: 82.7%
12,CCOP(=O)(OCC)/C(C#N)=C/c1cc(OC)ccc1OC,inconclusive: 105%
13,Cc1c(NC(=S)N/N=C/C=C/c2ccccc2)c(=O)n(-c2ccccc2)n1C,inconclusive: 109%
14,O=C(/C=C/c1cccnc1)/C=C/c1cccnc1,inconclusive: 109%
15,COc1cc(/C=C/C(=O)O)cc(S(=O)(=O)Nc2ccc3nc(C)sc3c2)c1OC,inconclusive: 106%
16,O=C(O)CSc1nc2sc3c(c2c(=O)n1-c1ccccc1)CCC3,inconclusive: 103%
17,CCc1ccccc1NC1c2ccccc2C(=O)N1Cc1ccco1 (centres undefined),inactive: 98.6%
18,CCOC(=O)c1cccc(NC(=O)Nc2ccc3c(c2)C(=O)OC3)c1,inconclusive: 108%
19,CCCCCc1cc(=O)oc2c(C(CCN3CCCC3)c3cc(OC)c(OC)c(OC)c3)c(OC)cc(OC)c12 (centres undefined),inconclusive: 102%
20,Cn1c2ccccc2c2nnc(SCC(=O)NCc3ccoc3)nc21,inconclusive: 78.6%
21,O=C(CSC1CS(=O)(=O)c2cc([N+](=O)[O-])ccc21)NNC(=O)c1ccc(Cl)cc1 (centres undefined),inconclusive: 117%
22,Cc1cc(C(F)(F)F)cc(NNC(=O)NC(=O)c2ccc(Cl)cc2)n1,inconclusive: 122%
23,O=C(NNC(=O)c1n[nH]c(=O)c2ccccc12)c1ccc(Br)cc1,inconclusive: 68.2%

row,Compound,binding response (% of control)
1,N#Cc1cnn(-c2cccc(Cl)c2)c1-n1cccc1,inconclusive: 136%
2,CC(C)(C)CC(=O)NC(=S)Nc1ccccc1[N+](=O)[O-],inconclusive: 104%
3,COC(=O)[C@@H]1C[C@@]2(O)[C@H](O)[C@H](O)[C@H](O)C[C@H]2N1CC(c1ccccc1)c1ccccc1,inconclusive: 100%
4,CCn1c(NC(=O)c2ccccc2)nc2ccccc21,inconclusive: 157%
5,COCC1CCN(Cc2nc(-c3ccc(OC)cc3)no2)CC1,inactive: 91.3%
6,COc1ccc(OCC(=O)Nc2ccccc2OC)cc1,inactive: 111%
7,COc1cc(CCN2C(=O)N[C@@H](c3cccc(C(F)(F)F)c3)C(C(C)=O)=C2C)cc(OC)c1OC,inactive: 89%
8,CCN(CC)Cc1ccccc1Sc1ccccc1,inactive: 103%
9,FC(F)(F)c1ccccc1NC(=S)N1CCCC1,inconclusive: 63%
10,CC(C)=CC(=O)Nc1ccc(S(=O)(=O)Nc2ccccn2)cc1,inactive: 102%
11,COc1ccc(N2C(=O)CC(Nc3cccc([N+](=O)[O-])c3)C2=O)cc1 (centres undefined),inconclusive: 92.9%
12,CNCc1c(OCc2ccc(F)cc2)ccc2ccccc12,inconclusive: 90.4%
13,COC(C#CCCN(C)C)(c1ccccc1)c1ccccc1,inactive: 103%
14,O=C(O)c1cccc(N/N=C/C2=C(Cl)c3cc(Cl)ccc3SC2)c1,inconclusive: 104%
15,Cc1ccc(Nc2nc(N)[nH]c(=O)c2N=O)cc1,inconclusive: 116%
16,O=C1CN(c2nc(-c3cccnc3)nc3scc(-c4ccccc4)c23)CCN1,inconclusive: 98.6%
17,C/C(=N\n1c(C)nc2ccccc2c1=O)c1ccc(C)o1,inconclusive: 115%
18,Nc1cccc2c1C(=O)N(C(=O)c1ccco1)C2=O,inconclusive: 170%
19,O=C(c1ccc(=O)[nH]c1)N(Cc1cccs1)C1(C(=O)NC2CCCC2)CCCCC1,inactive: 108%
20,COc1ccc(CCNC(=S)NC(=O)c2cccc(Cl)c2)cc1OC,inconclusive: -431%

# A draw from above in order of SMILES length, rising.
row,Compound,binding response (% of control)
20,COc1ccc(CCNC(=S)NC(=O)c2cccc(Cl)c2)cc1OC,inconclusive: -431%
2,CC(C)(C)CC(=O)NC(=S)Nc1ccccc1[N+](=O)[O-],inconclusive: 104%
16,O=C1CN(c2nc(-c3cccnc3)nc3scc(-c4ccccc4)c23)CCN1,inconclusive: 98.6%
11,COc1ccc(N2C(=O)CC(Nc3cccc([N+](=O)[O-])c3)C2=O)cc1 (centres undefined),inconclusive: 92.9%
